No constants are given. Whether binding was seen depends on the method and setting. Some binding calls cover weakened binding; strength is not graded here. Sequences can lack the tags named with a protein.

For one substance, binding results are on record in PMC10386108.

Test [1] has as its target T1, Strep II nanotag displayed on recombinant Qβ phage (QβStrep).
T1 sequence (peptide): DVEWLDERVPLVET
The test is described as follows: far-Western, overlay or dot blot; both purified.

For test [2] the target is unchanged. The test is described as follows: ELISA; both purified. (In an ELISA, binding on a coated surface is turned into a signal by an enzyme label.)

As for “streptavidin conjugated to HRP (from UniProt P22629 25-183)”, the binding entry in test [1] and in test [2] was “binds” each time.
